Inconclusive means that the source gave no clear call. Such entries were picked first, then a sample of the others. Calls of active or inactive are those of the source.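 Rule for the calls: active = inhibition of at least 50% in both of the two screening runs; inconclusive = at least 50% in one run, below 50% in the other; inactive = inhibition below 50% in both runs.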
system: hexokinase 1 (Trypanosoma brucei); experiment: T. brucei hexokinase 1 inhibition, single-dose recheck – biochemical, DPI cherry-picked primary actives, confirmation (AID 2560); conditions: recombinant TbHK1, G6PDH-coupled NADH A340 absorbance; at 10 µM; hits give high values;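 note: 0% and 100% set by the maximum and minimum signal control wells on each plate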
In short: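 System: Trypanosoma brucei hexokinase 1 enzyme with G6PDH coupling enzyme; Medium: Mg2+, NAD+ and G6PDH coupling mix; Reagent: substrates glucose 0.5 mM and ATP 0.35 mM; Doses: single compound dose of 10 µM final; Incubation: enzyme reaction 2 h at room temperature; Signal: A340 NADH absorbance, EDTA-quenched; Repeats: duplicate measurements per compound.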

Structure (SMILES) | inhibition
O=c1c(O)cccc2cc(O)c(O)c(O)c12 | inconclusive: 53.9%
CN(C)c1ccc2nc3ccc(=[N+](C)C)cc-3sc2c1 | active: 76.8%
Cn1nc(-c2ccc(Cl)cc2)nc2c(=O)n(C)c(=O)nc1-2 | active: 56.5%
CCC1(C)Cc2c(C#N)c(N)sc(=S)c2CO1 (stereo unspecified) | inconclusive: 50.1%
CC1(C)CC(=O)C=C(NCCCNC2CCCCC2)C1 | inactive: 2.17%
NC(=O)C1CCN(C(=O)c2cc(S(=O)(=O)N3CCOCC3)c(Cl)cc2Cl)CC1 | inactive: -2.64%

From PubChem BioAssay AID2560 (University of Pittsburgh Molecular Library Screening Center, 2010)
